## Primary screen of a compound library

Protein sequences, listed by entry. Tags and fused reporters are not part of them.
UniProt E9BF75, entry or part of it: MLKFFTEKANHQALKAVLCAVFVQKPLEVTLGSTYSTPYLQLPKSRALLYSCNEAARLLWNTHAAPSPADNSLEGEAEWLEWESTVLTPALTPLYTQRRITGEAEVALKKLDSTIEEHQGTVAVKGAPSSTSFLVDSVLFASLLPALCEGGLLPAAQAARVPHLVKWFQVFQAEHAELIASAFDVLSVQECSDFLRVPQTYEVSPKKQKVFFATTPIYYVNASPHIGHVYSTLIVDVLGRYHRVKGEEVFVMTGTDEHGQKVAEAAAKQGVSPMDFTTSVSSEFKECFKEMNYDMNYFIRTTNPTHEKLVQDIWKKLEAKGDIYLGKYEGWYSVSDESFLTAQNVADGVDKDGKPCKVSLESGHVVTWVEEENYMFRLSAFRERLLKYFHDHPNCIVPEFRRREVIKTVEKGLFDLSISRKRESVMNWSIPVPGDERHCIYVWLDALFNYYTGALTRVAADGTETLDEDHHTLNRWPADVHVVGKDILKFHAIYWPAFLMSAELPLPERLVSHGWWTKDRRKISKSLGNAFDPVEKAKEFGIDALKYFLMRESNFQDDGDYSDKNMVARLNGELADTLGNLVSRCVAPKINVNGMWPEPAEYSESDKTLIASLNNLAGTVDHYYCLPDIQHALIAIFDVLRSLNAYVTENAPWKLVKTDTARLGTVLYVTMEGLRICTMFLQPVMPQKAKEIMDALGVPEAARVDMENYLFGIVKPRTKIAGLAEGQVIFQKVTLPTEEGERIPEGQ

Source: ChEMBL document CHEMBL3988442, “University of Dundee, Small-Polar-MMV Screening Library” (2021).

LdMetRS: 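Methionyl-tRNA synthetase (putative), Leishmania donovani (UniProt E9BF75). Primary screen of methionyl-tRNA synthetase; the read-out is not stated. The test concentration is not given. The values are filed as inhibition. Size under these conditions: about 68,000 compounds, about 24 of them at 50% or above in at least one test.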
Mtb heat-shock: 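Assay on Mycobacterium tuberculosis, filed only as a heat shock assay from Cornell; the read-out is not stated. The concentration is filed as 10 mM, unlikely as a test dose, so the dose is not known. Direction is inferred from retests: higher values go with stronger inhibition. About 69,000 compounds were tested under these conditions; 1.4% (about 930) showed 50% or more at least once.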

All values are in %. The controls that fix the scale are not given in the record; negative values are as filed. The compounds are a random part of those screened. A dash means the value is not listed here; it may have been measured.

| # | structure | LdMetRS | Mtb heat-shock |
|---|---|---|---|
| 1 | `CN(C1CCN(c2ccccn2)CC1)S(=O)(=O)N1CCOCC1` | 6.15 | 7.361 |
| 2 | `Fc1cnc(N2CCO[C@H]3CN(CC4CCC4)C[C@H]32)nc1` | 5.439 | - |
| 3 | `c1cc2c(cc1CN1CC[C@H]3[C@H]1CCN3CC1CC1)OCO2` | 5 | - |
| 4 | `O=C(O)C(F)(F)F.O=C(O)CCC(=O)N1CCN(CC2CC2)c2ncccc2C1` | - | -13.63 |
| 5 | `O=C(O)C(F)(F)F.[H][C@]12CN(Cc3nccs3)C[C@@]1([H])OCCN(C(=O)c1cccn1C)C2` | - | -1.358 |
| 6 | `Cc1nccc(CNC(=O)NC(c2ncc(C)s2)C2CC2)n1` (configuration not stated) | 4.19 | -12.6 |
| 7 | `Cc1ccc(CN2Cc3nnn(C)c3C(COCCN(C)C)C2)s1` (configuration not stated) | 12.27 | - |
| 8 | `Cc1ccc(C2CCCN(S(=O)(=O)N3CCOCC3)C2)nc1` (configuration not stated) | 8.723 | 4.397 |
| 9 | `Cc1ccc(-c2nc(CN3CCOC(Cn4cccn4)C3)cs2)o1` (configuration not stated) | 10.51 | 19.35 |
| 10 | `CN(Cc1ccsc1)C(=O)c1cccc(S(=O)(=O)NC(C)(C)C)c1` | 2.024 | -1.376 |
| 11 | `CC(CCc1ccccc1F)C(=O)NS(C)(=O)=O` (configuration not stated) | 10.05 | 6.554 |
| 12 | `O=C(Nc1cccnc1)[C@H]1CN(Cc2nccs2)C[C@H]2OCC[C@@H]12` | -1.742 | - |
| 13 | `Cc1ccc(CN2CCN(c3ccc(F)cn3)CC2=O)cc1C` | 12.28 | -10.05 |
| 14 | `Cc1cccc(CN(Cc2ccccc2)Cc2nccs2)n1` | 17.53 | 15.94 |
| 15 | `COc1ccc(S(=O)(=O)N2CCn3cnc(COCC4CC4)c3C2)cc1` | -0.5376 | -8.791 |
| 16 | `[H][C@@]12CS(=O)(=O)C[C@]1([H])N(C(=O)Nc1ccccc1Cl)CCN2CC1CC1` | - | -1.974 |
| 17 | `CCN(Cc1nccn1C)C(=O)c1ccc(NCc2cnn(C)c2)nc1` | 11.06 | -8.2 |
| 18 | `O=S(=O)(NCC1(c2cccs2)CCOCC1)c1ccc2c(c1)OCCO2` | 3.107 | -27.02 |
| 19 | `CC(CNC(=O)c1cc(Cl)ccc1F)N1CCCC1` (configuration not stated) | 11.17 | -3.76 |
| 20 | `COc1cccc2sc(N3CC(OC(C)=O)C3)nc12` | 17.75 | 4.303 |
| 21 | `COc1ccc2nnc(CCCC(=O)NCCC3=CCCCC3)n2n1` | 13.69 | -7.536 |
| 22 | `Cc1cnc(CN2CCN(C(C)c3nc(C(C)C)no3)CC2)cn1` (configuration not stated) | 15.36 | 1.835 |
| 23 | `Cc1noc(-c2cnc(NC(C)C)nc2-c2ccco2)c1C` | 12.46 | 16.33 |
| 24 | `Cc1nc(C2CCCN2CC(=O)Nc2cc(C(C)(C)C)nn2C)no1` (configuration not stated) | 9.538 | -3.85 |
| 25 | `CC(=O)c1cccc(NC(=O)C2CN(S(=O)(=O)C3CC3)C2)c1` | 13.67 | 3.416 |
| 26 | `Cc1cccc(-c2noc(C)c2C(=O)NC2CCCOC2)c1` (configuration not stated) | 14.06 | - |
| 27 | `CNS(=O)(=O)c1cccc(CNC(=O)CCc2ccsc2)c1` | 7.692 | -12.37 |
| 28 | `Cc1ccc(S(=O)(=O)NCc2[nH]ncc2Br)cc1C` | 16.19 | 12.3 |
| 29 | `Cc1n[nH]c2c1C(c1ccc(O)c(Cl)c1)SCC(=O)N2` (configuration not stated) | 12.86 | 9.509 |
| 30 | `Cn1ccnc1-c1ccc(NC[C@H]2CCc3ccccc3O2)nn1` | 6.122 | 50.1 |
| 31 | `Cc1ccc([C@@H]2CN(S(=O)(=O)c3cc(C)ccc3F)C[C@H]2N(C)C)cc1` | 11.39 | -3.039 |
| 32 | `COCC(=O)N1CCC2(CC1)CN(c1ccccn1)CCO2` | 10 | - |
| 33 | `O=C(CCn1cnc2cc(F)c(F)cc21)N1CCN2CCCCC2C1` (configuration not stated) | 13.81 | 16.69 |
| 34 | `CCN(CC)c1ccc(NC(=O)N2CCc3sccc3C2)cn1` | - | 1.59 |
| 35 | `Cn1cc(Br)cc(NC(=O)CC2CCC2)c1=O` | 14.63 | 13.63 |
| 36 | `c1cnn(Cc2nnc3n2CCCN(CC2CCOCC2)C3)c1` | 5.579 | - |
| 37 | `COc1ccc2ccccc2c1CNCC1CCS(=O)(=O)C1` (configuration not stated) | 27.79 | - |
| 38 | `CCc1cnc(CN(C)C(=O)Nc2cnn(CC3CCCO3)c2)s1` (configuration not stated) | 5.076 | -5.009 |
| 39 | `Cc1cccc(=O)n1CCC(=O)N1CCC2(CC1)OCCCC2O` (configuration not stated) | 10.47 | -1.272 |
| 40 | `CC(C)NC(=O)N1CCC2(CC(=O)N(c3cccc(F)c3)C2)C1` (configuration not stated) | 6.536 | -1.918 |
| 41 | `CC[C@]12CN3C[C@](CC)(CN(C1)C3c1[nH]c(=O)[nH]c(=O)c1C)C2=O` (some centres not stated) | -0.271 | 72.7 |
| 42 | `CC(=O)c1ccc(-c2cc(C(F)(F)F)cc(N(C)C)n2)cc1` | 17.25 | 10.25 |
| 43 | `O=C1N(Cc2ccc(F)cc2)CCCC12CCN(C1CCSCC1)C2` (configuration not stated) | 21.23 | 56.84 |
| 44 | `CCn1nc(CC(C)C)cc1C(=O)NCCCOC` | -0.885 | 92.73 |
| 45 | `Fc1cccc(Cl)c1CN1CCn2c(nnc2C2CC2)C1` | 20.46 | -13.29 |
| 46 | `CCc1ccc(C(COC)NC(=O)c2ccc(C(N)=O)cc2)o1` (configuration not stated) | 12.16 | 15.39 |
| 47 | `Cn1cc(C(=O)N2CCN(c3ccccc3)CC2)ccc1=O` | 4.261 | 9.179 |
| 48 | `Cc1noc(C)c1CN(C)c1nccc(C(F)(F)F)n1` | -2.507 | 3.879 |
| 49 | `Cc1cc(C(=O)N(C)CC(F)(F)C(F)(F)F)ccc1-n1cncn1` | 9.116 | -0.2414 |
| 50 | `COc1ccc(-c2cc(C3CCCCCN3S(=O)(=O)N(C)C)on2)cc1` (configuration not stated) | 11.3 | -5.74 |
| 51 | `CC(Cc1ccco1)NC(=O)Nc1ccc(N2CCOCC2)nc1` (configuration not stated) | 18.37 | 4.651 |
| 52 | `Cc1ccc(CN2CCOCC3(C2)CN(c2ccc(C)s2)C(=O)CO3)o1` (configuration not stated) | 4.255 | - |
| 53 | `CNC(=O)N1C[C@H]2CC[C@@]3(N=C(c4ccccc4)NC3=O)[C@H]2C1` | 6.299 | - |
| 54 | `CCCc1n[nH]c(C2CN(C(=O)c3cccc4cn[nH]c34)CCO2)n1` (configuration not stated) | 14.8 | 8.55 |
| 55 | `CN(C)c1ncc(-c2cc(C(=O)NCCC#N)n(CC3CC3)c2)cn1.O=C(O)C(F)(F)F` | - | -1.377 |
| 56 | `CCc1nc2c(N3CCC4(CC3)CC(=O)N(CC(C)C)C4)ncnc2o1` | 13.92 | -53.27 |
| 57 | `CNC(=O)Cc1ccccc1NC(=O)C1CCN(C2CCCCC2)C1` (configuration not stated) | 13.12 | -8.82 |
| 58 | `CCOCc1cnc2n1CCN(C(=O)c1ccoc1C)C2C` (configuration not stated) | -0.5865 | 26.88 |
| 59 | `Cc1ccc(CNC(=O)NC2CCCc3c2cnn3CCO)cn1` (configuration not stated) | 19.63 | -8.679 |
| 60 | `Cc1c(C(=O)NC(C)C)nnn1-c1cccc(C(F)(F)F)c1` | 15.58 | 25.52 |
| 61 | `CCn1ncc(NC(=O)c2cc(C3CC3)nc3c2c(C)nn3C)c1C` | -1.049 | -11.12 |
| 62 | `CC(C(=O)N(C)C)N1CCCN(C(=O)Oc2ccccc2)CC1` (configuration not stated) | 10.97 | 8.109 |
| 63 | `CCc1cn[nH]c1C1CCCN(C(=O)c2noc(C)c2COC)C1` (configuration not stated) | 10.48 | -8.855 |
| 64 | `c1ccc(CCN2CCn3cc(Cn4cccn4)nc3C2)cc1` | 18.16 | - |
| 65 | `CC(C)c1noc(-c2cccc(OCC(N)=O)c2)n1` | 4.636 | 3.866 |
| 66 | `Cc1noc2ncnc(N(C)Cc3ccco3)c12` | 13.41 | -0.05647 |
| 67 | `COC(=O)C1CCCN1C(=O)c1cc(CC(C)C)no1` (configuration not stated) | 8.075 | -0.5305 |
| 68 | `CCn1ccnc1-c1nc2cc(S(=O)(=O)N3CCCC3)ccc2n1C` | 11.33 | 0.25 |
| 69 | `CN(CCNC(=O)c1cnc(-c2ccccc2)nc1)S(C)(=O)=O` | 2.558 | -11.73 |
| 70 | `NC(=O)N1CCCC(c2nc(-c3cccnn3)no2)C1` (configuration not stated) | 6.69 | 11.88 |
| 71 | `O=C1CCC(=O)c2oc3ccccc3c2N1` | 9.915 | 7.295 |
| 72 | `O=C(c1ccnnc1)N1CCN2C[C@H](OCc3ccccn3)C[C@H]2C1` | 12.94 | - |
| 73 | `FC1(F)CCN(Cc2ccncc2)CC12CCN(Cc1ccccn1)C2` (configuration not stated) | 3.03 | - |
| 74 | `Cc1cc(CN(C)C(=O)c2ccc(C(F)(F)F)nc2)no1` | 6.993 | 8.554 |
| 75 | `CCOCc1nc2c(c(NC(CC)c3ccnn3C)n1)CCNCC2` (configuration not stated) | 8.059 | 4.131 |
| 76 | `c1cncc(-c2noc(CN3CCn4c(nnc4C4CC4)C3)n2)c1` | 10.22 | 12.68 |

Repeated from the top, 7 entries:

* CN(C1CCN(c2ccccn2)CC1)S(=O)(=O)N1CCOCC1 | LdMetRS: 6.15%; Mtb heat-shock: 7.361%
* Fc1cnc(N2CCO[C@H]3CN(CC4CCC4)C[C@H]32)nc1 | LdMetRS: 5.439%
* c1cc2c(cc1CN1CC[C@H]3[C@H]1CCN3CC1CC1)OCO2 | LdMetRS: 5%
* O=C(O)C(F)(F)F.O=C(O)CCC(=O)N1CCN(CC2CC2)c2ncccc2C1 | Mtb heat-shock: -13.63%
* O=C(O)C(F)(F)F.[H][C@]12CN(Cc3nccs3)C[C@@]1([H])OCCN(C(=O)c1cccn1C)C2 | Mtb heat-shock: -1.358%
* Cc1nccc(CNC(=O)NC(c2ncc(C)s2)C2CC2)n1 (configuration not stated) | LdMetRS: 4.19%; Mtb heat-shock: -12.6%
* Cc1ccc(CN2Cc3nnn(C)c3C(COCCN(C)C)C2)s1 (configuration not stated) | LdMetRS: 12.27%